These are yes or no findings as the source states them, for the method shown. Some binding calls cover weakened binding; strength is not graded here.
Molecular target: hTNFSF9-His (monomeric human TNFSF9 extracellular domain with 9x-Histidine tag) (human) (UniProt P41273)
Assay: MSD sandwich ELISA, sulfo-tagged SC113.61 at 0.5 ug/mL as detector; standard curve with purified recombinant hTNFSF9-His

Amino acid sequences for entries named in this document (tags omitted). A change or cut given only in a name is not applied to a line headed by its entry.
UniProt P41273: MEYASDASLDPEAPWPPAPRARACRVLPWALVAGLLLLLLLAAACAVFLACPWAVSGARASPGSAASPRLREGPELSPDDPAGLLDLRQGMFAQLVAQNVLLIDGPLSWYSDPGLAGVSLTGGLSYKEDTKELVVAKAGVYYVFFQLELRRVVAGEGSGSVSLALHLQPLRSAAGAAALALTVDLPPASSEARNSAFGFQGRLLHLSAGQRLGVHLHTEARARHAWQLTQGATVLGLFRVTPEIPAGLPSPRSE

binding: binds
B1: SC113.61 (antibody, V domains shown)
VH: EVQLVESGGDLVKPGGSLKLSCAASGFTFSNYGMSWVRQTPDKRLEWVATISNGGISTYYPDSVKGRFTISRDNAKNTLYLQMNSLKSEDTAMYYCVRPGRGYFDYWGQGTTLTVSS
VL: DIVMTQAAPSVPVTPGESVSISCRSNKSLLHSDGNTYLYWFLQRPGQSPQLLIYRMSNLASGVPDRFSGSGSGTAFTLRISRVEAEDVGVYYCMQHLEYPWTFGGGTKLEIK
modifications: MSD SULFO-TAG NHS Ester label on amines (sites not given)

— US20190016812A1
